System: rat spinal nerve ligation (SNL)/Chung model of neuropathic pain
Assay: Spinal nerve ligation (SNL)/Chung model, thermal allodynia, cold plate test on lesioned paw
Format: in vivo
Method: Objective: The efficacy of Compound A was assessed using the rat spinal nerve ligation (SNL)/Chung model of neuropathic pain. The SNL model in rats was developed as described previously (Chung J M, Kim H K, Chung K. “Segmental spinal nerve ligation model of neuropathic pain.” Methods Mol. Med. 99 (2004) 35-45).
Study Design. Briefly, on Day 0, von Frey and cold plate tests were used for baseline measurements of tactile and cold allodynia respectively. Post-baseline measurements, rats (171-209 g male Sprague Dawley) were anesthetized and an incision at the L4-S2 level was performed to expose the left L5 nerve. […] The wound was then sutured and the rats were allowed to recover. On Day 13, post-surgery baselines for tactile and cold allodynia were measured to verify neuropathic pain. Animals were assigned to treatment groups based on the post-surgery baseline score.
Dosing: For efficacy testing, Compound A was dosed orally once a day for 5 consecutive days from Day 14-18.
The cold plate apparatus was maintained at 4±1° C. and was surrounded by an acrylic glass enclosure. Rats were placed on the plate for a period of 5 minutes. The latency to 1st paw-withdrawal, total number of paw withdrawals, and total duration of withdrawal responses were recorded for the surgery hind paw.

[1] = Day 14, test 1 h after administration, 128 mg/kg p.o.
[2] = Day 18, test 1 h after administration, 128 mg/kg p.o. once on Day 14 and on Day 18

For `CN1CC[C@]23c4c5ccc(O)c4O[C@H]2[C@@H](O)C=C[C@H]3[C@H]1C5.Cl` [Morphine, Morphine hydrochloride, reference compound], the “Total duration of withdrawal responses (s), Mean ± s.e.m.” value [1] was 4.9 ± 2.4 s, the “Total duration of withdrawal responses, compared with Vehicle (p.o.), Δ%” value [1] was “+123%” and the “Total duration of withdrawal responses (s), Mean ± s.e.m.” value [2] was 3.8 ± 2.7 s. For the same molecule, the “Total duration of withdrawal responses, compared with Vehicle (p.o.), Δ%” value [2] was −65%.
